In publication doi:10.1101/613612:

Biological target: T1, cLuc-AtPIP2a (Arabidopsis thaliana) (UniProt P43286)
T1 sequence: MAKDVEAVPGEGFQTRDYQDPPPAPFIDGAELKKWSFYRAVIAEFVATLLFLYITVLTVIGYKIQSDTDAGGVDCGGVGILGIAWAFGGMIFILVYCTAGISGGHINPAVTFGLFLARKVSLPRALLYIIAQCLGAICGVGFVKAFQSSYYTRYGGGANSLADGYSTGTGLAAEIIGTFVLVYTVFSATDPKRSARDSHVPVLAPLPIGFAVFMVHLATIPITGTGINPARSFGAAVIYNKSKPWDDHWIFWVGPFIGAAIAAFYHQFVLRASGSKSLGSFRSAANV
Test: split reporter

binding: no binding
Substance: Pti1b-nLuc (tomato) (enzyme)

These are yes or no findings as the source states them, for the method shown. In cells and extracts the contact can be indirect. Tags and fused reporters may be left off the sequences shown.
